Inconclusive means that the source gave no clear call. Such entries were picked first, then a sample of the others. Potencies of inconclusive entries are doubtful fits and often do not repeat. Calls of active or inactive are those of the source. Calls follow the shape of the dose curve; as a rule, active = well fitted inhibition curve with a large enough effect; inconclusive = small, poorly fitted or top-dose-only effect; inactive = no such curve, though single readings can be large or run the other way.
assay: Orthogonal mCherry assay for qRT-PCR qHTS of selected Zika virus inhibitors; settings: Vero cells, ZIKV-mCherry infection imaging, 48-72 h; series mostly up to 32.6 µM
From the text: Description: Assay Submitters (PI): Avindra Nath, Ph.D., National Institute of Neurological Disorders and Stroke (NINDS), Bethesda, MD Radhakrishnan Padmanabhan, Ph.D., Georgetown University (GU), Washington D.C. Zika Virus causes congenital defects, including microcephaly and is associated with Guillain-Barre syndrome, eningoencephalitis and myelitis in infected adult. […] Using a target-based approach, we hope to establish a screening paradigm to uncover novel, cell-active NS2B-NS3 protease (Zika Virus) specific inhibitors from NCATS' collection of small molecules using qHTS. […] Four assay panel was created to identify potential Zika Virus inhibitors. Namely, (1) GU unlinked NS2B-NS3 AMC tagged protease qHTS, (2) GU unlinked NS2B-NS3 Rhodamine tagged protease qHTS, (3) NINDS linked NS2B-NS3 AMC tagged protease qHTS, (4) NINDS linked NS2B-NS3 Rhodamine tagged protease qHTS. Inhibitors of the Zika virus primary screens are confirmed using qRT-PCR secondary assays, mCherry orthogonal assay, and Vero cells viability counterscreen. Early Translation Branch (ETB) National Center for Advancing Translational Sciences (NCATS), Rockville, MD National Institute of Health (NIH), Bethesda, Maryland
384 well ZIKV-mCherry Assay: We have developed a new orthogonal imaging assay in 384-well plate format, which uses recombinant virus ZIKV-mCherry in Vero cells. Briefly, 30 microL of Vero cells derived from a green monkey cell line, were dispensed by Multidrop Dispenser into a clear solid bottom black 384 well plate (ultracarrier, Perkin Elmer LifeSciences) at a concentration of 5,000 cells per well. The plate was incubated overnight in a CO2 incubator at 37 degrees C. Compounds were delivered as a 126 nL DMSO solution by Kalypsys pintool transfer. Following compound transfer, 10 microL of ZIKV-mCherry was added at an MOI of 1 and incubated in a CO2 incubator for 48-72 hrs at 37 degrees C. After sufficient incubation of infected cells in test plates, 8 microL of 32% PFA was dispensed into assay plates to fix cells and incubated for 20 min at room temperature. Plates were washed 3 times with PBS using BioTek EL406 microplate washer/dispenser. After washing, 30 microL of PBS with 0.01% TX-100 containing Hoechst dye was dispensed into the each well of the plates for nuclear staining. 384-well plates were imaged on an automated, widefield high content imager (INCell 2200, GE Healthcare) using a 10x/0.45 NA lens and standard DAPI (nuclear stain) and mCherry (cy5) excitation and emission filters. The TIFFs were quantitated using the canned Multi Target Analysis protocol (GE Investigator Workstation software v3.7.2). Briefly, nuclei from the DAPI channel were identified using top hat segmentation and a sensitivity setting of 96 and minimum size area of 35 microm2. A recombinant Zika viral infection was monitored in the Cy5 channel (cells) using a 2 microm collar dilation from the nuclear bitmap. mCherry objects with an average nuclear RFU intensity above 450 (3 stdev above mean negative control wells) were considered "mcherry positive" and data was analyzed by percent infection rate.

SMILES | Potency
CC(Oc1ccccc1)C(=O)Nc1ccc(C(=O)OCc2cc(=O)n3nc(C4CC4)sc3n2)cc1 (stereo not given) | inconclusive: 3.98 µM [inhibitor, full curve, poor fit]
Nc1ccn([C@@H]2O[C@H](CO)[C@@H](O)C2(F)F)c(=O)n1 | inactive
O=C1NC(=O)/C(=C/c2ccc3c(c2)OC(F)(F)O3)S1 | inactive
COc1cccc(-n2nc(C(=O)O)cc2-c2ccc(C3CCCCC3)c(Cl)c2)c1 | active: 25.1 µM
COc1cnc(-c2ccc(Cn3c(CC(C)(C)C(=O)O)c(SC(C)(C)C)c4cc(OC[C@@H]5Cc6ccccc6N5C(C)=O)ccc43)cc2)nc1 | inconclusive: 11.2 µM [inhibitor, full curve, poor fit]
CCOC(=O)c1ccc(N2C(=O)c3n[nH]c(-c4cccs4)c3C2c2ccc(Cl)cc2Cl)cc1 (stereo not given) | inconclusive: 5.01 µM [inhibitor, partial curve, poor fit]
COc1cc(/C=C(\C#N)C(=O)Nc2nnc(C(F)(F)F)s2)ccc1OCc1ccc(C(F)(F)F)cc1C(F)(F)F | inconclusive: 11.2 µM [inhibitor, full curve, poor fit]
CC(C)(C)Sc1c(CC(C)(C)C(=O)O)n(Cc2ccc(Cl)cc2)c2ccc(OCc3ccc4ccccc4n3)cc12 | inconclusive: 28.2 µM [inhibitor, partial curve, poor fit]
CC(C)(Sc1ccc(CCN(CCCCC2CCCCC2)C(=O)NC2CCCCC2)cc1)C(=O)O | inconclusive: 10 µM [inhibitor, partial curve, poor fit]
O=C(O)/C=C/c1ccc(-c2ccc(O)c(C34CC5CC(CC(C5)C3)C4)c2)cc1 | inconclusive: 3.55 µM [inhibitor, full curve, poor fit]
CCOc1nc2cccc(C(=O)OC(C)OC(=O)OC3CCCCC3)c2n1Cc1ccc(-c2ccccc2-c2nn[nH]n2)cc1 (stereo not given) | inconclusive: 3.98 µM [inhibitor, full curve, poor fit]
COc1cc2c(c(O)c1OC/C=C(\C)CC/C=C(/C)CCC=C(C)C)CN(C(CCC(=O)O)C(=O)O)C2=O (stereo not given) | inactive
Cc1ccc(-n2[nH]c(C)c(N=Nc3cccc(-c4cccc(C(=O)O)c4)c3O)c2=O)cc1C | inactive
CO[C@H]1C[C@@H](O[C@@H]2/C(C)=C/C[C@@H]3C[C@@H](C[C@]4(CC[C@H](C)[C@@H](C5CCCCC5)O4)O3)OC(=O)[C@@H]3C=C(C)/C(=N/O)[C@H]4OC/C(=C\C=C\[C@@H]2C)[C@]43O)O[C@@H](C)[C@H]1O | inconclusive: 2.51 µM [inhibitor, full curve, poor fit]
CC1=C(C(=O)OCc2ccccc2)C(c2ccc(-c3ccccc3)cc2)NC(=O)N1CCCCCC(=O)O (stereo not given) | inactive
CC(C)c1ccc2c(c1)c(SC(C)(C)C)c(CC(C)(C)C(=O)O)n2Cc1ccc(Cl)cc1 | inactive
CCCCCCCOc1cc2c(cc1/C(C)=C/c1ccc(C(=O)O)cc1)C(C)(C)CCS2(=O)=O | inconclusive: 6.31 µM [inhibitor, full curve, poor fit]
CC(C)c1cc(C(C)C)c(CC(=O)NS(=O)(=O)Oc2c(C(C)C)cccc2C(C)C)c(C(C)C)c1 | inactive
CCCCc1nn2c(=O)cc(COC(=O)c3ccc(NC(=O)c4ccccc4Cl)cc3)nc2s1 | inconclusive: 12.6 µM [inhibitor, partial curve, poor fit]
O=C(O)c1ccc(-n2nc(-c3ccccc3O)nc2-c2ccccc2O)cc1 | inconclusive: 31.6 µM [inhibitor, partial curve, poor fit]

Pulled by structure from the entries so far (two):
SMILES | Potency
CCCCc1nn2c(=O)cc(COC(=O)c3ccc(NC(=O)c4ccccc4Cl)cc3)nc2s1 | inconclusive: 12.6 µM [inhibitor, partial curve, poor fit]
CC(C)(C)Sc1c(CC(C)(C)C(=O)O)n(Cc2ccc(Cl)cc2)c2ccc(OCc3ccc4ccccc4n3)cc12 | inconclusive: 28.2 µM [inhibitor, partial curve, poor fit]

(more compounds)

SMILES | Potency
CC(C)C[C@H](C(=O)O)c1cc(-c2ccc(C(F)(F)F)cc2)cc(-c2ccc(C(F)(F)F)cc2)c1 | inconclusive: 3.98 µM [inhibitor, full curve, poor fit]
COc1c(C)c2c(c(O)c1C/C=C(\C)CCC(=O)O)C(=O)OC2 | inactive
CC(=O)N1c2ccc(-c3ccc(C(=O)O)cc3)cc2C(Nc2ccc(Cl)cc2)CC1C (stereo not given) | inconclusive: 28.2 µM [inhibitor, partial curve, poor fit]
CC(C)c1onc(-c2c(Cl)cccc2Cl)c1COc1ccc(/C=C/c2cccc(C(=O)O)c2)c(Cl)c1 | active: 25.1 µM
CCOC(=O)c1ccc(N2C(=O)c3n[nH]c(-c4cccs4)c3C2c2ccc(C(C)(C)C)cc2)cc1 (stereo not given) | inconclusive: 3.16 µM [inhibitor, full curve, poor fit]
Nc1ncnc2c([C@@H]3N[C@H](CO)[C@@H](O)[C@H]3O)c[nH]c12 | active: 14.1 µM
CN(Cc1ccc(C(=O)O)cc1)c1ccc(OCc2c(-c3c(Cl)cccc3Cl)noc2C2CC2)nc1C(F)(F)F | active: 14.1 µM
CC(C)c1cccc2c(-c3ccccc3)cc(-c3ccc(-c4ccc(C(=O)O)cc4)[nH]3)nc12 | inconclusive: 6.31 µM [inhibitor, full curve, poor fit]
O=C(O)c1ccc2c(ccc3nn(-c4ccc(/C=C/c5ccc(-n6nc7ccc8cc(C(=O)O)ccc8c7n6)cc5[S+](=O)([O-])[O-])c([S+](=O)([O-])[O-])c4)nc32)c1 | inconclusive: 31.6 µM [inhibitor, partial curve, poor fit]
CN(CC(=O)N(Cc1ccc(C2CCCCC2)cc1)c1ccc(C(=O)O)cc1)S(=O)(=O)c1c(F)c(F)c(F)c(F)c1F | inconclusive: 7.94 µM [inhibitor, full curve, poor fit]
CC(C)=CCc1c2c(c3occ(-c4ccc(O)c(O)c4)c(=O)c3c1O)C=CC(C)(C)O2 | inactive
Oc1cc2ccccc2c2ccccc12 | inactive
CC1CCN(C(c2ccc(F)cc2)c2ccc(C(C)C(=O)O)cc2-c2ccc(C(F)(F)F)cc2)CC1 (stereo not given) | inconclusive: 3.55 µM [inhibitor, full curve, poor fit]
COc1ccc(NS(=O)(=O)c2ccc(NS(=O)(=O)c3ccc4c(c3)OCCO4)cc2)cc1 | inactive
Cc1ccc2[nH]c(=O)c(C3=NN(C(=O)CCC(=O)O)C(c4ccc(Br)cc4)C3)c(-c3ccccc3)c2c1 (stereo not given) | inconclusive: 12.6 µM [inhibitor, partial curve, poor fit]
Cc1ccc([C@@H]2CC=C(C(=O)O)[C@H](c3ccc(C(C)(C)C)cc3)N2S(=O)(=O)c2ccc(C)cc2)cc1 | inconclusive: 11.2 µM [inhibitor, full curve, poor fit]
Cc1cc(C(C#N)c2ccc(Cl)cc2)c(Cl)cc1NC(=O)c1cc(I)cc(I)c1O (stereo not given) | inactive
N#CC1C(=O)Nc2scc(-c3ccc(-c4ccccc4O)cc3)c2C1=O (stereo not given) | inactive
O=C(Nc1ccc(-c2ccc(Cl)c(Cl)c2)cc1)C1=C(O)c2ccccc2S(=O)(=O)N1 | inconclusive: 4.47 µM [inhibitor, full curve, poor fit]
O=C(Nc1ccc([N+](=O)[O-])cc1Cl)c1cc(Cl)ccc1O | inactive

— PubChem BioAssay AID1347171 (National Center for Advancing Translational Sciences (NCATS), 2019)
